Source: publication PMC11281901
These are yes or no findings as the source states them, for the method shown. Some entries that bind do so weakly or less than the wild type.

Biological target: T1, mitochondrial antiviral signaling protein (MAVS) (mouse (endogenous in RAW264.7)), Q8VCF0
T1 chain: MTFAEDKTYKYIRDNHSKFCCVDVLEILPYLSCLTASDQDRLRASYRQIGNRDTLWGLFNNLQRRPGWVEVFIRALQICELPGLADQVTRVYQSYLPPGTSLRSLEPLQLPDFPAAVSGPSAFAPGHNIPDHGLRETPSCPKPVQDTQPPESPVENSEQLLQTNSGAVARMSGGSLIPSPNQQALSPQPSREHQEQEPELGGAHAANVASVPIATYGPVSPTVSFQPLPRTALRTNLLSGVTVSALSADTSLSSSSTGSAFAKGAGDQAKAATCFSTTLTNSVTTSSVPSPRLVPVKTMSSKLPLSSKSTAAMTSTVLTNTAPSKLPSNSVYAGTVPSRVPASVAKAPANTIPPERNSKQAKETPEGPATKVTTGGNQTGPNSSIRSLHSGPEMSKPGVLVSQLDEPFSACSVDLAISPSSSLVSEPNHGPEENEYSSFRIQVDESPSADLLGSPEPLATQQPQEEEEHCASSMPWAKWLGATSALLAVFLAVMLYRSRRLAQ
Assay: SDD-AGE; GST-RIG-I(N) incubated with K63-Ub4, then with mitochondria isolated from RAW264.7 cells preincubated with or without lactate (5 mM, 10 mM) or pyruvate; mitochondria extracts on SDD-AGE, immunoblot
Conditions: remark: other sources report otherwise

B1: mitochondrial antiviral signaling protein (MAVS), Q8VCF0 1-503 (protein)
chain: MTFAEDKTYKYIRDNHSKFCCVDVLEILPYLSCLTASDQDRLRASYRQIGNRDTLWGLFNNLQRRPGWVEVFIRALQICELPGLADQVTRVYQSYLPPGTSLRSLEPLQLPDFPAAVSGPSAFAPGHNIPDHGLRETPSCPKPVQDTQPPESPVENSEQLLQTNSGAVARMSGGSLIPSPNQQALSPQPSREHQEQEPELGGAHAANVASVPIATYGPVSPTVSFQPLPRTALRTNLLSGVTVSALSADTSLSSSSTGSAFAKGAGDQAKAATCFSTTLTNSVTTSSVPSPRLVPVKTMSSKLPLSSKSTAAMTSTVLTNTAPSKLPSNSVYAGTVPSRVPASVAKAPANTIPPERNSKQAKETPEGPATKVTTGGNQTGPNSSIRSLHSGPEMSKPGVLVSQLDEPFSACSVDLAISPSSSLVSEPNHGPEENEYSSFRIQVDESPSADLLGSPEPLATQQPQEEEEHCASSMPWAKWLGATSALLAVFLAVMLYRSRRLAQ
binding: binds
